Measurements taken from publication PMC9946837.
Results are given in words; binding and its absence hold for the method and conditions named. Binding seen in cells or lysates may run through a third protein. Here binding means that the protein was enriched with, or labelled near, the bait; the list need not be complete. For some of these results: Tags and fused reporters may be left off the sequences shown.

Sequences of proteins named here, by UniProt entry; tags and fusion partners are left off. A change or cut given only in a name is not applied to a line headed by its entry.
UniProt Q8CHK4: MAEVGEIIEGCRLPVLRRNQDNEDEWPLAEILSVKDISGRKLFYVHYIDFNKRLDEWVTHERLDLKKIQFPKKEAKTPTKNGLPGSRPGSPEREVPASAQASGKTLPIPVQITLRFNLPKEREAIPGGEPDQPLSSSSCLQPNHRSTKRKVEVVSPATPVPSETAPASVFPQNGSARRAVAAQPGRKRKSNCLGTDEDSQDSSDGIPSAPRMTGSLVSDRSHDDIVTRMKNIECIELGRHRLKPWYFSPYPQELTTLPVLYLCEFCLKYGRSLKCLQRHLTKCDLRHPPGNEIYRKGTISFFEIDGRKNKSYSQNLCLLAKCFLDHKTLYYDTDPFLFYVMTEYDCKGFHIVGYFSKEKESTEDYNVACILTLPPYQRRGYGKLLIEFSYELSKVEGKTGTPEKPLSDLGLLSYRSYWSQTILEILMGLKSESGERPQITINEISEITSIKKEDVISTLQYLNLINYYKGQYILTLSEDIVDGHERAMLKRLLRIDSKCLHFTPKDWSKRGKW
UniProt Q61324: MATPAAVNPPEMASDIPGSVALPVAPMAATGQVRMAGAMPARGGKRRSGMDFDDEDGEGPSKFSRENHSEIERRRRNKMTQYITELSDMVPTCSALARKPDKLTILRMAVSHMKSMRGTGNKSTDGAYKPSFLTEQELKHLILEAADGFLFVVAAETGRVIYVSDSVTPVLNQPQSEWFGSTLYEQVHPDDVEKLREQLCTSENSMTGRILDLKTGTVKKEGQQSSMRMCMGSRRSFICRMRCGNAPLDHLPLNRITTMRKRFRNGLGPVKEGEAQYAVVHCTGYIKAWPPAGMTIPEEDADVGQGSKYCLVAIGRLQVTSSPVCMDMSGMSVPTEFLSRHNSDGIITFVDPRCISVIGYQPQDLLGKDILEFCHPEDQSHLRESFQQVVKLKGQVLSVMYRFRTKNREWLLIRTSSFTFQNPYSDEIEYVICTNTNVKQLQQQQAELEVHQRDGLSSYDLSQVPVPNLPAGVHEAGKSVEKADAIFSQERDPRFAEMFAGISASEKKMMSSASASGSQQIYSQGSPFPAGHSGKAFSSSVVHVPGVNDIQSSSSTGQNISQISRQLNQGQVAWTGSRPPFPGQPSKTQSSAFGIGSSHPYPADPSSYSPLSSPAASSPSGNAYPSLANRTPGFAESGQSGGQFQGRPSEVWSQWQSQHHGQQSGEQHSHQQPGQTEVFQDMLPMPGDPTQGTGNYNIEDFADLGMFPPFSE
UniProt A2AQ25: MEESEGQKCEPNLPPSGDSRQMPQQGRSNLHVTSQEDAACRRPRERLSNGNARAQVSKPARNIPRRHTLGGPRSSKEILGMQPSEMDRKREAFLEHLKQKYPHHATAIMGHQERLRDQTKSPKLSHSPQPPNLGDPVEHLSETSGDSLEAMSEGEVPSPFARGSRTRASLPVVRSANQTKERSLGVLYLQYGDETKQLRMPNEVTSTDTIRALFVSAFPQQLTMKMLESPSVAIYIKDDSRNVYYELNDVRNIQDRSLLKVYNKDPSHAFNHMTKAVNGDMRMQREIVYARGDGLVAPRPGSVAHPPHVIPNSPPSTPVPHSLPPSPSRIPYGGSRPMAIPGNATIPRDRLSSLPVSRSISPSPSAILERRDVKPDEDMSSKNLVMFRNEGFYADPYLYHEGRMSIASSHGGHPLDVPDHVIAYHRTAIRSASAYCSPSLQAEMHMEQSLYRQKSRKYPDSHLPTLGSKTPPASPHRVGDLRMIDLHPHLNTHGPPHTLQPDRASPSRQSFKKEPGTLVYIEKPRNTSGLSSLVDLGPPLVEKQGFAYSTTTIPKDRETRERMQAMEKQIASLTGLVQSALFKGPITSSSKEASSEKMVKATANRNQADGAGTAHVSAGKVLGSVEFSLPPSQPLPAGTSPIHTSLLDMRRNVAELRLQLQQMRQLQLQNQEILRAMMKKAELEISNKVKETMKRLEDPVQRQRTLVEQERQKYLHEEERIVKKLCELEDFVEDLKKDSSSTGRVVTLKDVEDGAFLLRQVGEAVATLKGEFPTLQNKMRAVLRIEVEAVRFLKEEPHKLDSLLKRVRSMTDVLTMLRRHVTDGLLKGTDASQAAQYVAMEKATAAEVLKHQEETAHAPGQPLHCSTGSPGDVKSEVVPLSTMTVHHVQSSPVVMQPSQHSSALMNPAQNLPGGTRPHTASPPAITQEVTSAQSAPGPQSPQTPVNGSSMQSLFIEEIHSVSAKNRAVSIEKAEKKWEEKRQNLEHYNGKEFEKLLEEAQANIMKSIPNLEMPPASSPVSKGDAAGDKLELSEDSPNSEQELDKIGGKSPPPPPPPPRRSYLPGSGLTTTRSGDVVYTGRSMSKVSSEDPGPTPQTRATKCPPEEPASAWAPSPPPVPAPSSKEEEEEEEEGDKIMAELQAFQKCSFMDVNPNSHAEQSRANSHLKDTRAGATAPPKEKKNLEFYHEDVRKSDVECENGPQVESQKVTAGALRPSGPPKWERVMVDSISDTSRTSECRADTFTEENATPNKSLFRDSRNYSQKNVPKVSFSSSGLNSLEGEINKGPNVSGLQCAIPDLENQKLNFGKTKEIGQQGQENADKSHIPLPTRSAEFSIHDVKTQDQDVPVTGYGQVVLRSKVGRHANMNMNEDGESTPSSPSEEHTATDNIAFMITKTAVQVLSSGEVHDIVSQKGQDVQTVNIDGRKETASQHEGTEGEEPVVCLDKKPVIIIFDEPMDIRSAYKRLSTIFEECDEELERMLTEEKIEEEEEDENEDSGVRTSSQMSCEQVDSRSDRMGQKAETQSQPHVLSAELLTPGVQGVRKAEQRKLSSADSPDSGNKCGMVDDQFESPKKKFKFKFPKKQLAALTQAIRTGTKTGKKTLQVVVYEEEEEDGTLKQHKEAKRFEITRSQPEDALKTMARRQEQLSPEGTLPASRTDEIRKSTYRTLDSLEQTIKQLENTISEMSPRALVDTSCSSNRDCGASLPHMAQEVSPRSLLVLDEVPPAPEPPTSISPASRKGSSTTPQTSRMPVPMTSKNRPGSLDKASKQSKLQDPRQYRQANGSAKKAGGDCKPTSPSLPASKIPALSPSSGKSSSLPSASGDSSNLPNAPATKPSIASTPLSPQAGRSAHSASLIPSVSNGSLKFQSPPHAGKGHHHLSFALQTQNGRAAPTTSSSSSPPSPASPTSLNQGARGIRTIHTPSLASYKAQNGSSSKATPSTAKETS

T1: NPAS4–Flag-HA (mouse) (UniProt Q8BGD7)
T1 sequence: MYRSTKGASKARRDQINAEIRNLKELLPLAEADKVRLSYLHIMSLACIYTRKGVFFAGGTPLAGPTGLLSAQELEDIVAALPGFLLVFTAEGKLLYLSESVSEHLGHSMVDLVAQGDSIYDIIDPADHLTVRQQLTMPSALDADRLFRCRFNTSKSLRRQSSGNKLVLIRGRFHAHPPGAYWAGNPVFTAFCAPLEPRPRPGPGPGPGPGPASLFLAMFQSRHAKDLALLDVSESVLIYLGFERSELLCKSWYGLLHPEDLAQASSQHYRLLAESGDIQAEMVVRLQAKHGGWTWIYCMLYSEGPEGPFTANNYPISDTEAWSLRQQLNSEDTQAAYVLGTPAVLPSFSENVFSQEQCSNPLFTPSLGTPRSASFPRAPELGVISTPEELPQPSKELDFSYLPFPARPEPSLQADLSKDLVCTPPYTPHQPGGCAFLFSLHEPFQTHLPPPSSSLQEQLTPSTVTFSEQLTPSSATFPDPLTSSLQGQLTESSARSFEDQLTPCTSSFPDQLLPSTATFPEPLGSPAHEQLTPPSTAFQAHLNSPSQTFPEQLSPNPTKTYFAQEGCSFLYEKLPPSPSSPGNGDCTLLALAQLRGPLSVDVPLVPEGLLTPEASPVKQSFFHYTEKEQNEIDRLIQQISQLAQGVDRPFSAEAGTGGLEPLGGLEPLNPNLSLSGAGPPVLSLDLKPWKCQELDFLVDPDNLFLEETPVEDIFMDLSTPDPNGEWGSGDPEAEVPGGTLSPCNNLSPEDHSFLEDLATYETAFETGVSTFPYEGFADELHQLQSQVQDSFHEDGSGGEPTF

B1: NPAS4 (protein, UniProt Q8BGD7 1-802)
chain: T1 sequence

Experiments:
[1] = molecular target: TIP60-Flag (Tip60-H3F knock-in mice) (mouse) (UniProt Q8CHK4); assay: affinity purification with mass spectrometry; anti-Flag IP from high molecular weight glycerol gradient fractions 1–3 of forebrain nuclear lysates of Npas4–Flag-HA, Tip60-H3F and wild-type mice 2 h after kainic acid; eluates of fractions pooled
NPAS4–Flag-HA (mouse) = molecular target: T1, NPAS4–Flag-HA (mouse); assay: as above

| Molecule | binding [1] | binding (NPAS4–Flag-HA (mouse)) |
| --- | --- | --- |
| ARNT2 (from UniProt Q61324 1-712) | binds |  |
| ETL4 (from UniProt A2AQ25 1-1946) | binds | binds |
| B1 | binds |  |
